Experimental data: US20250163522A1, “METHODS FOR PRESERVING HEALTHY INTESTINAL MICROBIOME DURING GROWTH PROMOTER ADMINSTRATION” (BIOMEDIT, LLC, priority 2022, published 2025)
Some entries share one result that the patent states for a list of compounds. For at least one compound, name, drawing or mass did not settle the structure. Some ranges recur; such a range may be that of the whole group of compounds.

Tested on: cecal microbiome
Assay: Shotgun metagenomics (functional/taxonomic profiles, GSEA) of cecal microbiome, day 35 broilers
Assay type: in vivo, chickens (Gallus gallus)
Description: 74 frozen cecal samples from day 35 birds were sent to CosmosID (Rockville, MD) for shotgun metagenomics sequencing. DNA was extracted using the ZymoBIOMICS DNA Miniprep Kit (ZymoBIOMICS, Irvine, CA) according to the manufacturers protocol. The isolated DNA was quantified by Qbit (ThermoFisher, Coon Rapids, MN). DNA libraries were prepared using the Illumina Nextera XT library preparation kit (Illumina, San Diego, CA), with a modified protocol. Libraries were then sequenced on an Illumina HiSeq platform 2×150 bp.
Reads were trimmed and Illumina adapters removed using Trimmomatic (v 0.39) (Bolger et al., Bioinformatics 30, 2114-2120 (2014)) with options SLIDINGWINDOW:5:20 LEADING:3 TRAILING:3. Host reads (Gallus gallus, GenBank assembly GCA_000002315) and spike-in reads from Vibrio harveyii (ATCC 14126) were removed using Bowtie2 (v. 2.3.5.1) (Langmead et al., Nat Methods 9, 357-359 (2012)).
Taxonomic profiling of individual reads was carried out using Kaiju (v. 1.7.3) (Menzel et al., Nat Commun 7, 11257 (2016)) with the nr_euk database. Kaiju outputs were summarized for each read as the number of bases aligned to proteins in the reference database. In cases of individual reads mapping to more than one taxonomic group, the number of bases assigned to each taxon was calculated as the alignment length (in base pairs) multiplied by the fraction of bases assigned unambiguously to said taxon out of all the taxa to which the read mapped. The numbers of assigned bases per read were used to estimate species-level relative abundances using metametamerge (v. 1.1) (Piro, V. C., et al., Microbiome 5, 101 (2017).) taking into account the average coding length per species in the nr_euk database.
Functional profiling was done by first assembling the reads from each sample into contigs using Spades (v. 3.13.1, option --meta) (Nurk, S. et al., Genome Res 27, 824-834 (2017)), with default parameters, followed by protein prediction with Prokka (v. 1.14.5) (Seemann, T. Prokka: Bioinformatics 30, 2068-2069 (2014).). […]

Row | Compound | higher fraction of relative abundances accounted for by core microbiome compared to BMD and controls
1 | virginiamycin | 1-5%
2 | CC[C@@H](C(=O)O)[C@@H]1O[C@@H]([C@@H](C)[C@H](O)[C@H](C)C(=O)[C@H](CC)[C@H]2O[C@]3(C=C[C@@H](O)[C@]4(CC[C@@](C)([C@H]5CC[C@](O)(CC)[C@H](C)O5)O4)O3)[C@H](C)C[C@@H]2C)[C@@H](C)C[C@@H]1C [narasin] | 1-5%
3 | COC[C@H]1O[C@@H](OC2OC[C@@H]3O[C@]4(O[C@H]3[C@H]2OC(=O)C(C)C)O[C@H](C)[C@@](O)(C(C)=O)[C@@H]2OCO[C@H]24)[C@@H](OC)[C@@H](O)[C@@H]1O[C@@H]1O[C@H](C)[C@H](OC)[C@H](O[C@H]2C[C@@]3(C)OC4(C[C@@H](O)[C@H](O[C@H]5C[C@@H](O)[C@H](OC(=O)c6c(C)c(Cl)c(O)c(Cl)c6OC)[C@@H](C)O5)[C@@H](C)O4)O[C@@H]3[C@@H](C)O2)[C@H]1O (stereo partly drawn) [avilamycin] | 1-5%
